Source: patent publication US6544773B1, “Microbial process for degradation of PCBS in clophen A-50 using a novel marine microorganism, Pseudomonas CH07” (priority 2001, dated 2003)

Tested on: Pseudomonas CH07
Experiment: Degradation of PCB congeners of Clophen A-50 by Pseudomonas CH07 in seawater nutrient broth, GC-ECD analysis
Conditions: for Degradation by Pseudomonas CH07 (in words): congeners present in Clophen A-50, marine condition; for Conc. of PCBs in Control: control without the organism, Clophen A-50 100 ppm in seawater nutrient broth, room temperature
Protocol: A defined seawater nutrient broth medium (code no. 088 from Himedia, Bombay) containing beef extract 3 g L^−1, peptic digest of animal tissue 5 g L^−1 was used. One liter of medium contained 500 ml seawater and 500 ml distilled water and the final pH was adjusted to 7 using 0.1 N NaOH. After autoclaving, the required amount of stock solution (10,000 ppm) of Clophen A-50 was added to the medium in sterile condition to achieve a final concentration of 100 ppm. Immediately after adding the stock PCBs solution, the hexane part of it was evaporated out by gently swirling the flask in sterile condition and sterile glycerol was added to the medium in a 1:1 ratio of stock solution:glycerol. 40 μl of 24 hold culture of Pseudomonas CH07 growths was added in two replicates of 20 ml of test (seawater nutrient broth+Clophen A-50) medium to seawater nutrient broth (without any addition of Clophen A-50). Controls in duplicate were also maintained without the addition of the organism at room temperature (ca. 28°±2° C.). Control and test cultures were maintained at room temperature for two days and at various predecided intervals of time, the samples was taken out aseptically and prepared for GC analysis. The details of the sample preparation is described below.
The PCBs were analyzed following the method described by Boon et al. The method was standardized in our laboratory using the PCBs standards obtained from Promochem, Germany as well as other analytical grade chemicals from E. Merck. The purity of the solvents was checked by Gas chromatography for each of the bottles. The different adsorbents, alumina, silica, were purified by soxhlet extraction with di-chloro-methane (HPLC grade) for about eight hours. The anhydrous Na2SO4 and the glass wool were also purified by Soxhlet extraction with HPLC grade di-chloro methane. The different steps of the analytical methods are illustrated below:
i. Aliquot of 1 ml sample was treated with 1 ml n-hexane (HPLC grade) thrice and thoroughly mixed by a vortex mixture for five minutes each time. The upper part of the solvent layer (solvent extract) was separated with the help of micropipette and transferred to a sterilized glass tube.
ii. Concentrate the solvent extract to 1 ml by evaporation with Snyder column evaporator on a water bath at 85° C.
iii. Purify of the solvent extract by alumina clean up using micro-column technique.
iv. Concentrate the solvent extract to 1 ml by evaporation with Snyder column evaporator on a water bath at 85° C.
v. Isolate PCBs from polar chlorinated compounds by eluting through micro-column of silica.
vi. Concentrate the PCBs fraction to 1 ml by evaporation with Snyder column evaporator on a water bath at 85° C.
vii. Analyze the aliquot by GC-ECD with reference to standard PCBs (individual congeners).
The samples were analyzed by gas chromatography (Varian GC-3380) coupled with an electron capture detector and an autosampler 8200. Capillary column VA-5 (30 m×0.25 mm) was employed with electron capture detector […] for peak detection. Argon with 5% methane was the carrier gas. A temperature program was used (table. 3). […] The experimental condition of the instrument is illustrated in the table-4. The analysis of PCBs was calibrated using the standards for individual congeners of PCBs obtained from Promochem, Germany. Using different dilutions of the stock solution of the standards carried out the calibration of each of the individual congeners. The linearity of the calibration curve was determined with a range of dilution of the mix-standards.

| SMILES | Conc. of PCBs in Control | Degradation by Pseudomonas CH07 (in words) | other results |
| --- | --- | --- | --- |
| Clc1ccc(-c2ccc(Cl)c(Cl)c2)cc1Cl [CB-77, 3,3′,4,4′-tetrachlorobiphenyl] | 53.37 ng/mL | – | Degradation by Pseudomonas CH07 (in words) (listed as 3,3′,4,4′-tetrachlorobiphenyl): degraded very substantially; Degradation by Pseudomonas CH07 (in words) (listed as cb-77): capable of degrading |
| Clc1cc(Cl)c(-c2cccc(Cl)c2Cl)cc1Cl [CB-97, 2,2′,3′,4,5-Pentachloro] | 8.17 ng/mL | capable of degrading | – |
| Clc1ccc(Cl)c(-c2cc(Cl)c(Cl)cc2Cl)c1 [CB-101, 2,2′,4,5,5′-Pentachloro] | 18.17 ng/mL | capable of degrading | – |
| Clc1ccc(-c2ccc(Cl)c(Cl)c2Cl)cc1Cl [CB-105, 2,3,3′,4,4′-Pentachloro] | 17.54 ng/mL | – | – |
| Clc1c(Cl)c(Cl)c(-c2ccccc2)c(Cl)c1Cl [CB-116, 2,3,4,5,6-Pentachloro] | 10.09 ng/mL | – | – |
| Clc1ccc(-c2cc(Cl)c(Cl)cc2Cl)cc1Cl [CB-118, 2,3′,4,4′,5-Pentachloro] | 1.31 ng/mL | – | – |
| Clc1cc(Cl)c(-c2ccc(Cl)c(Cl)c2)c(Cl)c1 [CB-119, 2,3′,4,4′,6-Pentachloro] | 8.07 ng/mL | – | – |
| Clc1ccc(-c2cc(Cl)c(Cl)c(Cl)c2)cc1Cl [CB-126, 3,3′,4,4′,5-Pentachloro] | 2.75 ng/mL | completely degraded | Time to complete degradation (congener in Clophen A-50, Pseudomonas CH07): about 40 hours; Degradation by Pseudomonas CH07 (in words) (listed as cb-126): capable of degrading |
| Clc1ccc(-c2ccc(Cl)c(Cl)c2Cl)c(Cl)c1Cl [CB-128, 2,2′,3,3′,4,4′-Hexachloro] | 5.02 ng/mL | capable of degrading | – |
| Clc1cc(Cl)c(-c2ccc(Cl)c(Cl)c2Cl)cc1Cl [CB-138, 2,2′,3,4,4′,5′-Hexachloro] | 1.62 ng/mL | capable of degrading | – |
| Clc1ccc(Cl)c(-c2cc(Cl)c(Cl)c(Cl)c2Cl)c1 [CB-141, 2,2′,3,4,5,5′-Hexachloro] | 3.57 ng/mL | capable of degrading | – |
| Clc1ccc(Cl)c(-c2c(Cl)c(Cl)cc(Cl)c2Cl)c1 [CB-151, 2,2′,3,5,5′,6-Hexachloro] | 2.04 ng/mL | are degraded | – |
| Clc1cc(Cl)c(-c2cc(Cl)c(Cl)c(Cl)c2Cl)cc1Cl [CB-180, 2,2′,3,4,4′,5,5′-Heptachloro] | 1.64 ng/mL | degraded sufficiently | Degradation by Pseudomonas CH07 (in words) (listed as cb-180): capable of degrading |
| Clc1ccc(-c2c(Cl)c(Cl)c(Cl)c(Cl)c2Cl)c(Cl)c1 [CB-181, 2,2′,3,4,4′,5,6-Heptachloro] | 2.87 ng/mL | degraded sufficiently; also recorded: completely degraded | Degradation by Pseudomonas CH07 (in words) (listed as cb-181): are degraded |

“Also recorded” adds a separate entry of the source.
